{"source": "patent US20160039936A1", "about": "“FIBROBLAST GROWTH FACTOR RECEPTOR INHIBITION FOR THE TREATMENT OF DISEASE” (UNIVERSITY OF MIAMI, priority 2011, published 2016)", "tested_on": "isolated neonatal rat ventricular cardiac myocytes (NRVM)", "assay": "Surface area (hypertrophy) of isolated NRVM, immunocytochemistry and morphometry (Examples 1-2)", "type": "cell-based", "procedure": "NRVM were isolated using a standard isolation system (Worthington Biochemical Corporation) (Toraason et al., Toxicology, 56(1):107-117, 1989). Hearts from 1-2 day old Sprague Dawley rats (Charles River) were harvested, minced in calcium- and magnesium-free Hank's Balanced Salt Solution (HBSS), and the tissue digested with 50 μg/ml trypsin at 4° C. for 20-24 hours. Soybean trypsin inhibitor in HBSS was added and the tissue was further digested with collagenase (in Leibovitz L-15 medium) under slow rotation (15 rpm) at 37° C. for 45 minutes. Cells were released by gently triturating the suspension 20 times with a standard 10 ml plastic serological pipette and filtering it twice through a cell strainer (70 μm, BD Falcon). […] Cells were counted using a hemocytometer. […]\nWe analyzed isolated NRVM on laminin-coated glass coverslips by immunocytochemsitry according to our established protocols (Faul et al., Cell Biol., 169(3):415-424, 2005; Faul et al., Cell Biol., 27(23):8215-8227, 2007). […] Leica AF6000 fluorescence software was used to measure the cell surface area based on α-actinin-positive staining.\nTo assess the signaling pathways involved in FGF23- and FGF2-mediated hypertrophy, we analyzed the morphometry of plated cells that were pre-treated with specific inhibitors for 60 minutes prior to the addition of the FGFs at varying concentrations.", "note": "At least one compound was matched to its structure with a doubt left."}
{"smiles": "COC[C@H]1OC(=O)c2coc3c2[C@@]1(C)C1=C(C3=O)[C@@H]2CCC(=O)[C@@]2(C)C[C@H]1OC(C)=O", "note": "[Wortmannin]", "values": [{"measurement": "FGF2-induced increase in cell surface area (hypertrophy) in presence of inhibitor", "setting": "48 h FGF2, inhibitor pre-treated 60 min at Table 2 concentration", "result": "partially attenuated"}, {"measurement": "FGF23-induced increase in cell surface area (hypertrophy) in presence of inhibitor", "setting": "48 h FGF23, inhibitor pre-treated 60 min at Table 2 concentration", "result": "did not significantly alter"}]}
